# Screening data

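Plate-reader measure of the Venus reporter marking one vaccinia stage in infected cells (the cell line is not named here); read time unknown.
The test concentration is not given here.
Percent change in Venus reporter signal; lower (more negative) values mean stronger inhibition of that viral stage.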

Values are in %.
The controls that fix the scale are not given here.
Common to all entries: measured here: Venus reporter, other viral stage.
This is a side read-out of the assay, for part of the compounds, not drawn at random.

compound,activity change (Venus) (%)
C[C@@H]1CN([C@H](C)CO)S(=O)(=O)c2ccc(/C=C/c3ccccc3)cc2O[C@@H]1CN(C)C(=O)c1ccc2c(c1)OCO2,-41.47
N#C[C@H]1[C@@H](c2ccc(C3=CCCCC3)cc2)[C@H](CO)N1S(=O)(=O)c1ccccc1,-31.64
C=CC[C@]12N=C(c3ccc(OCCCO)cc3)O[C@H]1c1ccccc1CN(C(=O)c1ccccc1)C2=O,-33.44
C[C@H]1CN([C@@H](C)CO)C(=O)c2c(c3ccccc3n2C)-c2ccccc2CO[C@@H]1CN(C)Cc1cccc2c1OCCCO2,-52.29
C[C@@H]1CCCCO[C@H](CN(C)C(=O)C2CCCCC2)[C@H](C)CN([C@H](C)CO)C(=O)c2cc(NC(=O)Cc3ccccc3)ccc2O1,-33.93
C[C@H](CO)N1C[C@H](C)[C@H](CN(C)Cc2ccc(Cl)c(Cl)c2)Oc2ccc(NC(=O)Cc3cn(C)c4ccccc34)cc2C1=O,-37.43
C[C@@H]1CCCCO[C@@H](CN(C)S(=O)(=O)c2cccs2)[C@H](C)CN([C@H](C)CO)C(=O)c2cc(NS(=O)(=O)c3ccc(F)cc3)ccc2O1,-45.99
C[C@@H]1CN([C@@H](C)CO)C(=O)c2cc(NC(=O)Nc3ccc4c(c3)OCO4)ccc2O[C@@H](C)CCCCO[C@H]1CN(C)CC1CCCCC1,-49.45
CCCC#Cc1ccc2c(c1)O[C@@H](CN(C)Cc1ccncc1)[C@H](C)CN([C@H](C)CO)S2(=O)=O,-55.18
C[C@H]1CCCCO[C@H](CN(C)S(=O)(=O)c2ccc(Cl)cc2)[C@@H](C)CN([C@@H](C)CO)C(=O)c2cc(NC(=O)Cc3ccccc3)ccc2O1,-24.31
N#Cc1cccc(-c2ccc(C3[C@@H]4CN(Cc5ccccc5F)C[C@H]3N4)cc2)c1 (stereo partly drawn),-39.66
C[C@H](CO)N1C[C@H](C)[C@@H](CN(C)C(=O)Nc2cccc3ccccc23)Oc2c(NC(=O)Nc3ccc(C(F)(F)F)cc3)cccc2C1=O,-41.09
COc1cccc(CN2CC3(C2)CN(C(=O)Nc2ccc(F)cc2)[C@@H](CO)c2c3c3ccc(OC)cc3n2C)c1,-26.29
COc1ccc(NC(=O)N2CC(=O)N3[C@H](C2)[C@@H](c2ccc(C#CCC4CCCC4)cc2)[C@@H]3CO)cc1,-37.8
Cc1noc(C)c1S(=O)(=O)Nc1ccc2c(c1)C(=O)N([C@@H](C)CO)C[C@@H](C)[C@H](CN(C)Cc1ccc(C(F)(F)F)cc1)OCCCC[C@@H](C)O2,-74.42
Cc1noc(C)c1NC(=O)Nc1ccc2c(c1)C(=O)N([C@@H](C)CO)C[C@H](C)[C@H](CN(C)Cc1ccc(C(F)(F)F)cc1)OCCCC[C@@H](C)O2,-41.83
N#Cc1ccc(-c2ccc([C@@H]3[C@H]4CNC[C@@H]3N4Cc3cc(F)ccc3F)cc2)cc1,-64.58
COc1ccc([Si](C)(C)[C@H]2[C@H](CCO)O[C@@]3(C(=O)N(Cc4ccc(NC(C)=O)cc4)c4ccccc43)[C@@H]2C)cc1,-81.45
C[C@H]1CN([C@@H](C)CO)S(=O)(=O)c2ccc(C#Cc3ccncc3)cc2O[C@H]1CN(C)C(=O)C1CCCCC1,-27.72
COc1cccc(-c2ccc3c(c2)O[C@@H](CN(C)Cc2cccnc2)[C@H](C)CN([C@@H](C)CO)S3(=O)=O)c1,-54.31
C[C@@H]1CN([C@@H](C)CO)C(=O)Cc2cc(NC(=O)c3ccncc3)ccc2O[C@H]1CN(C)Cc1ccc(Cl)c(Cl)c1,-74.79
C[C@H]1CN([C@@H](C)CO)S(=O)(=O)c2ccc(C#Cc3ccc(F)cc3)cc2O[C@@H]1CN(C)S(=O)(=O)c1cn(C)cn1,-68.2
O=C(NC1CCCCC1)N1C[C@@H]2N[C@H](C1)C2c1ccc(-c2cccc(F)c2)cc1 (stereo partly drawn),-83.69
COc1ccc(C#Cc2ccc([C@H]3[C@H]4CN(C(=O)Cc5cccnc5)CCCCN4[C@H]3CO)cc2)cc1,-72.44
CC(=O)N(C)C[C@H]1Oc2cc(C#Cc3ccccc3)ccc2S(=O)(=O)N([C@@H](C)CO)C[C@H]1C,-39.1
COc1ccccc1C#Cc1ccc2c(c1)O[C@@H](CN(C)Cc1cccnc1)[C@H](C)CN([C@H](C)CO)S2(=O)=O,-61.01
COc1ccc(NC(=O)Nc2ccc3c(c2)C(=O)N([C@H](C)CO)C[C@H](C)[C@H](CN(C)CC2CCCCC2)OCCCC[C@H](C)O3)cc1,-53.51
C=CC[C@@]12N=C(c3ccc(OCCCO)cc3)O[C@@H]1c1ccccc1CN(C(=O)c1ccccc1)C2=O,-26.47
COc1ccc(CN(C)C[C@@H]2Oc3ccc(NC(=O)Nc4ccc(C(F)(F)F)cc4)cc3CC(=O)N([C@@H](C)CO)C[C@@H]2C)cc1,-26.47
CC(C)NC(=O)N(C)C[C@H]1Oc2ccc(NC(=O)Nc3ccc(C(F)(F)F)cc3)cc2CC(=O)N([C@@H](C)CO)C[C@H]1C,-42.09
C[C@@H](C(=O)N(C)C[C@@H]1OCc2ccccc2-c2c(n(C)c3ccccc23)C(=O)N([C@@H](C)CO)C[C@@H]1C)c1ccccc1,-40.11
CNC[C@@H]1Oc2cc(C#CC3CCCC3)ccc2S(=O)(=O)N([C@H](C)CO)C[C@H]1C,-45.79
C[C@H]1CCCCO[C@@H](CN(C)Cc2ccc3c(c2)OCO3)[C@@H](C)CN([C@@H](C)CO)C(=O)c2cc(NC(=O)Nc3ccc(C(F)(F)F)cc3)ccc2O1,-40.43
C[C@@H]1CN([C@H](C)CO)S(=O)(=O)c2ccc(C#Cc3ccccn3)cc2O[C@@H]1CN(C)Cc1cccc(F)c1,-41.43
C[C@H](CO)N1C[C@H](C)[C@H](CN(C)S(=O)(=O)c2cccs2)Oc2ncc(C#Cc3cccc(F)c3)cc2C1=O,-28.49
COc1cccc(-c2cccc(-c3nc(C(=O)N(C)C)cc4c3[C@@H](CCO)N([S@](=O)C(C)(C)C)C4)c2)c1,-7.6
C[C@H]1CCCCO[C@@H](CN(C)C(=O)Nc2ccc(F)cc2)[C@@H](C)CN([C@@H](C)CO)C(=O)c2cc(NS(=O)(=O)c3cccs3)ccc2O1,-22.97
O=C(C[C@@H]1CC[C@@H]2[C@H](COC[C@H](O)CN2C(=O)Nc2ccc(Cl)c(Cl)c2)O1)NCc1ccc(F)cc1,-32.3
Cc1ccc(S(=O)(=O)N(C)C[C@@H]2OCCCC[C@H](C)Oc3ccc(NS(=O)(=O)c4c(C)noc4C)cc3C(=O)N([C@@H](C)CO)C[C@H]2C)cc1,-38.17
C[C@H](CO)N1C[C@H](C)[C@H](CN(C)S(=O)(=O)c2ccc(C(F)(F)F)cc2)OCc2ccccc2-c2c(n(C)c3ccccc23)C1=O,-23.96
C[C@@H]1CN([C@@H](C)CO)C(=O)c2cc(NS(=O)(=O)c3ccc(Cl)cc3)ccc2O[C@@H](C)CCCCO[C@@H]1CN(C)Cc1ccncc1,-34.72
C[C@H](CO)N1C[C@H](C)[C@H](CN(C)Cc2ccccc2)Oc2ccc(NC(=O)CCCCCC(=O)Nc3ccccc3N)cc2CC1=O,-27.83
C[C@@H]1CN([C@H](C)CO)C(=O)c2cc(NS(=O)(=O)c3ccc(Cl)cc3)ccc2O[C@@H](C)CCCCO[C@H]1CN(C)Cc1ccc(C(F)(F)F)cc1,-83.91

For reference, 4 entries once more:

compound,activity change (Venus) (%)
COc1ccc(CN(C)C[C@@H]2Oc3ccc(NC(=O)Nc4ccc(C(F)(F)F)cc4)cc3CC(=O)N([C@@H](C)CO)C[C@@H]2C)cc1,-26.47
COc1ccc(C#Cc2ccc([C@H]3[C@H]4CN(C(=O)Cc5cccnc5)CCCCN4[C@H]3CO)cc2)cc1,-72.44
C[C@@H]1CN([C@@H](C)CO)C(=O)c2cc(NC(=O)Nc3ccc4c(c3)OCO4)ccc2O[C@@H](C)CCCCO[C@H]1CN(C)CC1CCCCC1,-49.45
N#C[C@H]1[C@@H](c2ccc(C3=CCCCC3)cc2)[C@H](CO)N1S(=O)(=O)c1ccccc1,-31.64

Data taken from PubChem BioAssay AID1053133, deposited by Broad Institute (2014).